From the supplement of paper PMC10727501
Counter-ions that a name gives are not always drawn. The list shows a part of the results. Repeats in this data set agree poorly, so a single value says little.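 Free-swimming zebrafish larvae were assessed for O-bend response probability to dark flashes (naive: first five; training: remaining flashes across four 60-flash blocks; test: later 60-flash block) and for OMR turning toward alternating leftward/rightward LED motion. Six treated larvae were compared against sixty 0.1% DMSO controls; hits required |SSMD|≥2.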

Experiments:
Settings in all cases: 10 µM; pre-incubation: 30-90 min
[1] = system: Danio rerio larvae (5 dpf, TLF); assay: OMR-Perf (SSMD vs DMSO vehicle); higher = higher than vehicle (e.g. higher dark-flash O-bend response probability, or better optomotor performance)
[2] = system: Danio rerio larvae (5 dpf, TLF); assay: Prob-Test (SSMD vs DMSO vehicle); higher = higher than vehicle (e.g. higher dark-flash O-bend response probability, or better optomotor performance)
[3] = system: Danio rerio larvae (5 dpf, TLF); assay: Prob-Naive (SSMD vs DMSO vehicle); higher = higher than vehicle (e.g. higher dark-flash O-bend response probability, or better optomotor performance)
[4] = system: Danio rerio larvae (5 dpf, TLF); assay: Prob-Train (SSMD vs DMSO vehicle); higher = higher than vehicle (e.g. higher dark-flash O-bend response probability, or better optomotor performance)

Compound	OMR-Perf [1]	Prob-Test [2]	Prob-Naive [3]	Prob-Train [4]
CN1[C@@H]2C[C@@H](O)C[C@H]1[C@@H]1O[C@@H]12 [Scopine]	-0.0107	-0.0666	-1.09	-0.192
Cc1cc(C(=O)CN2CCCC2)c(C)n1-c1ccc(F)cc1	-0.206	0.992	0.255	1.07
COc1ccc(C(CN(C)C)C2(O)CCCCC2)cc1.Cl (centres undefined) [Venlafaxine]	0.822	-0.601	-0.318	-1.4
C[C@]12CCC(=O)C=C1C=C[C@@H]1[C@@H]2CC[C@@]2(C)[C@H]1CC[C@@]2(O)CCC(=O)O.[K] [Potassium Canrenoate]	0.859	0.201	-0.0812	0.308
NCC1(CC(=O)O)CCCCC1 [Gabapentin (Neurontin)]	-0.0375	0.719	-0.319	0.0271
CNCC(=O)c1ccc(O)c(O)c1.Cl [Adrenalone HCl]	-0.434	0.0747	0.186	0.532
O=P1(NCCCl)OCCCN1CCCl (centres undefined) [Ifosfamide]	0.181	0.085	0.121	0.621
CC(=O)OCC1=C(C(=O)O)N2C(=O)[C@H](N)[C@H]2SC1 [7-Aminocephalosporanic acid]	0.049	-0.0889	-0.207	-0.0193
CC(NC(C)(C)C)C(=O)c1cccc(Cl)c1.Cl (centres undefined) [Amfebutamone HCl]	0.239	0.168	-0.0304	0.216
C=CCN1CC[C@]23c4c5ccc(O)c4O[C@H]2C(=O)CC[C@@]3(O)[C@H]1C5.Cl [Naloxone HCl]	-0.746	-0.785	5.13e-16	-1.16
COc1ccc(CC2NCCc3cc(OC)c(OC)cc32)cc1OC.Cl (centres undefined) [Tetrahydropapaverine HCl]	0.0894	-0.0643	0.146	-0.3
C1=C2CCCN[C@H]2[C@@H]2C[C@H]1[C@H]1CCCCN1C2 [Aloperine]	-1.1	-0.427	-0.224	0.263
O=C(O[C@H]1C[C@H]2CC[C@@H](C1)[N+]21CCCC1)C(O)(c1ccccc1)c1ccccc1.[Cl-] [Trospium chloride]	-0.207	-0.182	0.611	-0.0377
Cl.NCC1(CC(=O)O)CCCCC1 [Gabapentin Hydrochloride]	-0.266	-0.511	-0.419	-0.584
CN(C)Cc1c[nH]c2ccccc12 [Gramine]	-0.105	0.138	-0.0225	0.00647
O.O=P1(N(CCCl)CCCl)NCCCO1 (centres undefined) [Cyclophosphamide monohydrate]	-0.344	-0.166	0.106	-0.632
CN1C2CCC1CC(OC(=O)[C@H](CO)c1ccccc1)C2 (some centres undefined) [Hyoscyamine]	-0.772	-0.444	-0.109	-1.06
Cn1cc(C2=C(c3cn(C4CCN(Cc5ccccn5)CC4)c4ccccc34)C(=O)NC2=O)c2ccccc21	0.0725	-0.0766	-0.414	-0.471
Cc1cccc(C)c1NC1=NCCCS1.Cl [Xylazine HCl]	-0.132	-0.831	-0.038	-0.627
CN1C(=O)CCS(=O)(=O)C1c1ccc(Cl)cc1 (centres undefined) [Chlormezanone]	-0.424	0.44	0.285	0.636
CC(=O)O[C@@]12CO[C@@H]1C[C@@H](O)[C@@]1(C)C(=O)[C@H](O)C3=C(C)[C@@H](O)C[C@@](O)([C@@H](OC(=O)c4ccccc4)[C@H]21)C3(C)C [10-Deacetylbaccatin-III]	0.0296	0.411	-0.639	-0.176
O=c1[nH]c2ccccc2n1CCCN1CCC(n2c(=O)[nH]c3cc(Cl)ccc32)CC1 [Domperidone]	-0.677	-0.0565	-0.0304	0.15
C#C[C@@]1(O)CC[C@H]2[C@@H]3CCC4=CC(=O)CC[C@]4(C)[C@@H]3CC[C@@]21C [Ethisterone]	0.448	-0.0493	0.549	-0.0773
c1ccc2c(c1)sc1ccccc12 [Dibenzothiophene]	-0.721	-0.266	-1.67	-1.21
Cc1cccc([C@H](C)c2cnc[nH]2)c1C.Cl [Dexmedetomidine HCl (Precedex)]	-1.33	-1.61	-2.5	-3.07
c1ccc2c(c1)Nc1ccccc1S2 [Phenothiazine]	-0.603	-0.692	-4.98	-2.43

Compound	OMR-Perf [1]	Prob-Test [2]	Prob-Naive [3]	Prob-Train [4]
C[C@H]1CCC/C=C/[C@@H]2C[C@H](O)C[C@H]2[C@H](O)/C=C/C(=O)O1 [Brefeldin A]	-1.54	-1.34	0.464	-0.281
CNC(=O)Oc1ccc2c(c1)[C@]1(C)CCN(C)C1N2C.O=C(O)c1ccccc1O (some centres undefined) [Physostigmine Salicylate]	-0.121	-0.0698	0.433	0.728
C/C(=C\c1csc(C)n1)[C@H]1C[C@@H]2O[C@]2(C)CCC[C@H](C)[C@H](O)[C@@H](C)C(=O)C(C)(C)[C@H](O)CC(=O)O1 [Epothilone B (EPO906, Patupilone)]	0.411	0.275	0.454	0.439
Cc1ccc(-n2nccn2)c(C(=O)N2CCN(c3nc4cc(Cl)ccc4o3)CC[C@H]2C)c1 [Suvorexant (MK-4305)]	-1	-1.71	-4.98	-2.51
O=C(O)c1nn(Cc2ccc(Cl)cc2Cl)c2ccccc12 [Lonidamine]	-0.305	-1.27	0.335	-0.684
C[C@]12CC[C@H](O)C[C@@H]1CC[C@@H]1[C@H]2CC[C@]2(C)C(=O)CC[C@@H]12 [Epiandrosterone]	-0.96	-1.77	-1.19	-2.74
Br.CN1[C@@H]2C[C@@H](OC(=O)[C@H](CO)c3ccccc3)C[C@H]1[C@@H]1O[C@@H]12 [Scopolamine HBr]	0.0228	-1.19	-0.692	-0.642
CN(C)[C@@H]1C(O)=C(C(N)=O)C(=O)[C@@]2(O)C(=O)C3=C(O)c4c(O)cccc4[C@@](C)(O)[C@H]3[C@H](O)[C@@H]12 [Oxytetracycline (Terramycin)]	-0.41	0.0142	-0.172	0.814
CC[C@@H]1[C@@H](C)O[C@@](O)([C@@H](C)[C@H](O)[C@H](C)[C@H]2OC(=O)/C=C/C=C/[C@H](C)[C@H]([C@@H](C)[C@@H](O)[C@H](C)[C@@]3(O)C[C@@H](O[C@H]4C[C@H](O)[C@H](O)[C@H](C)O4)[C@H](CC)[C@@H](C)O3)OC(=O)/C=C/C=C/[C@H]2C)C[C@H]1O[C@H]1C[C@H](O)[C@H](O)[C@H](C)O1 [Elaiophylin]	0.184	0.0269	0.292	0.2
C[C@@]12N[C@@H](Cc3ccccc31)c1ccccc12.O=C(O)/C=C/C(=O)O [(-)-MK 801 Maleate]	-0.952	-1.25	0.389	-2.12
O=C(O)CNC(=O)c1c(O)c2ccccc2n(Cc2ccccc2)c1=O	-0.306	0.153	0.146	-0.376
C=C1C[C@@H]2[C@@H](CC[C@@]3(C)C(=O)CC[C@@H]23)[C@@]2(C)C=CC(=O)C=C12 [Exemestane]	0.51	-0.0258	-0.253	-1
CC(C)=CC1C(C(=O)OCc2cccc(Oc3ccccc3)c2)C1(C)C (centres undefined) [Phenothrin]	0.0544	0.227	0.153	0.811
CNCC(O)c1ccc(O)cc1.Cl (centres undefined) [Synephrine HCl]	-0.399	0.271	-0.498	0.0889
CCC1(c2ccc(N)cc2)CCC(=O)NC1=O (centres undefined) [Aminoglutethimide]	-0.179	0.0606	0.214	-0.0938
CCC(COC(=O)c1cc(OC)c(OC)c(OC)c1)(c1ccccc1)N(C)C (centres undefined) [Trimebutine]	-0.672	-0.346	-1.08	-0.691
CC(=O)Nc1cc([As](=O)(O)O)ccc1O [Acetarsone]	-0.498	0.422	0.298	0.163
CN1c2ccccc2C(NCCCCCCC(=O)[O-])c2ccc(Cl)cc2S1(=O)=O.[Na+] (centres undefined) [Tianeptine sodium]	-0.424	-0.423	0.153	-0.353
Cl.O=C1CC[C@@]2(O)[C@H]3Cc4ccc(O)c5c4[C@@]2(CCN3CC2CC2)[C@H]1O5 [Naltrexone HCl]	0.214	-0.893	-0.215	-1.39
O=C(NCC1CCOCC1)c1cnc(Nc2ccc(Cl)cc2Cl)nc1C(F)(F)F	-0.724	-0.335	-0.0375	-0.21
O=P([O-])(O)C(Cl)(Cl)P(=O)([O-])O.[Na+].[Na+] [Clodronate Disodium]	-0.735	0.167	0.433	0.0885
CN1CCc2cc3c(cc2C1O)OCO3 (centres undefined) [Hydrastinine HCl]	-0.446	-0.139	-0.154	-0.188
CN(C)CCc1ccc(O)cc1 [Hordenine]	-0.117	0.0394	0.146	-0.233
CC[C@@H](C(N)=O)N1CCCC1=O [Levetiracetam]	-0.368	-0.0333	-0.0234	-0.347
Br.CCN1C[C@]2(OC(=O)c3ccccc3NC(C)=O)CC[C@@H](OC)[C@]34C1[C@@H](C[C@H]23)[C@@]1(O)C[C@H](OC)[C@H]2C[C@H]4[C@]1(O)[C@H]2OC [Lappaconite HBr]	0.12	0.287	0.208	0.185
